No constants are given. Whether binding was seen depends on the method and setting. In cells and extracts the contact can be indirect. Some entries that bind do so weakly or less than the wild type. Tags and fused reporters may be left off the sequences shown.
Target: T1, Rik1-13myc (S. pombe) (UniProt Q10426)
T1 sequence: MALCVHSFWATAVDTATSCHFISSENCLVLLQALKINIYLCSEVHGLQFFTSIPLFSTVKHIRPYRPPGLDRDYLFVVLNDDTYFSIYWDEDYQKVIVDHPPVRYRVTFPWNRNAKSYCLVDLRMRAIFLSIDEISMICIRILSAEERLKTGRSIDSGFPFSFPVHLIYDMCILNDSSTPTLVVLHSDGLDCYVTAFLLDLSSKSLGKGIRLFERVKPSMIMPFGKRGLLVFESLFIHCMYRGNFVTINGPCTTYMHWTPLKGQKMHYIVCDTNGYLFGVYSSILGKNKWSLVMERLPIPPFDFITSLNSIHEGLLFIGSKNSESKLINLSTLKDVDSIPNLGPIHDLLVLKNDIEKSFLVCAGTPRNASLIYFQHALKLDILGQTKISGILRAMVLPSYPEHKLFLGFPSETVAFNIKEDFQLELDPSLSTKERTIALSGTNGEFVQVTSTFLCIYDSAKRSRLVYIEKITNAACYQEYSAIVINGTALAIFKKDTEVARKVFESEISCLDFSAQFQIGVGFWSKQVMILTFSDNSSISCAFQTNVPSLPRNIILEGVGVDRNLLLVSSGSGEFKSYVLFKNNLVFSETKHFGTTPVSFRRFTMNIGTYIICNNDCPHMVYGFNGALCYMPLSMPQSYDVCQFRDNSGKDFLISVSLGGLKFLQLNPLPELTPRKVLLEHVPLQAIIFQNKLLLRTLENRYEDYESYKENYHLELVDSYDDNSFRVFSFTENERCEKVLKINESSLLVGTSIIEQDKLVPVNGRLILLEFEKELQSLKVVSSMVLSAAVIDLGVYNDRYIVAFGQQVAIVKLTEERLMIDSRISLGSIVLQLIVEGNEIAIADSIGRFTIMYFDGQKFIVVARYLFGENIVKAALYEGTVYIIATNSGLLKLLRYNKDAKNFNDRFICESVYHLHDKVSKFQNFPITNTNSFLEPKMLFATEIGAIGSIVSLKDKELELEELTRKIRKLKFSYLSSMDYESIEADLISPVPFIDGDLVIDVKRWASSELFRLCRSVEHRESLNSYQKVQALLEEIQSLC
Assay: co-IP

The chains behind the UniProt entries cited, without tags or fusion partners. Where a name states a change or a piece, a line headed by the entry shows the natural chain unless it says otherwise.
UniProt O60016: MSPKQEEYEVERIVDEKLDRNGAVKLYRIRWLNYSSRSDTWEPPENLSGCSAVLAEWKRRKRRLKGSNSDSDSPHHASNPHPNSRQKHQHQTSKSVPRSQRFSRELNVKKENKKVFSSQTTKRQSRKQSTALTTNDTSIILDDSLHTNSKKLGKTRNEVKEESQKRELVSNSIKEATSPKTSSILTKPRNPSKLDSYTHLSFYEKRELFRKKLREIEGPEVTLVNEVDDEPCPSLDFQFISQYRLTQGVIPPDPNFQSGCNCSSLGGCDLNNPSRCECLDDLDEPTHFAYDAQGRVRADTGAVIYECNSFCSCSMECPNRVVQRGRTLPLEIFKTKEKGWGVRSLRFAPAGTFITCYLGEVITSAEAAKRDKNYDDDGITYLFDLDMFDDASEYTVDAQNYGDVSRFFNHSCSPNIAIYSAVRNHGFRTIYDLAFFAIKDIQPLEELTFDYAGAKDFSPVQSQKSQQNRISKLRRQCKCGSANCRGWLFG

| binding | Substance |
| --- | --- |
| binds | 3xFLAG-Clr4 (from UniProt O60016 1-490) |
| binds | 3xFLAG-clr4-D253G/P254G/N255S/F256G (from UniProt O60016 1-490) |
| binds | 3xFLAG-clr4-F256A/F310A/F427A (from UniProt O60016 1-490) |
